Data reported in article PMC12655351, “Synthesis and Anticancer Activity Evaluation of New 5-((5-Nitrofuran-2-yl)allylidene)-2-thioxo-4-thiazolidinones” (Pharmaceuticals, 2025).

How the values were obtained:
[1] = system: Leukemia; settings: Leukemia subpanel; ratio GI50 / IC50
[2] = system: Colon cancer; test: NCI-60 SRB screen, subpanel; settings: for SI (GI50): ratio CC50 / IC50; for SI (LC50): ratio IC50 / GI50

SMILES | SI (LC50) [1] | SI (GI50) [2] | SI (LC50) [2]
CCCC(C(=O)O)N1C(=O)/C(=C/C=C/c2ccc([N+](=O)[O-])o2)SC1=S (stereo not drawn) [4b, 2-((Z)-5-((E)-3-(5-Nitrofuran-2-yl)allylidene)-4-oxo-2-thioxothiazolidin-3-yl)pentanoic acid] | 0.28 | 1.25 | 4.30
CC(C)C(C(=O)O)N1C(=O)/C(=C/C=C/c2ccc([N+](=O)[O-])o2)SC1=S (stereo not drawn) [5b, 3-Methyl-2-((Z)-5-((E)-3-(5-nitrofuran-2-yl)allylidene)-4-oxo-2-thioxothiazolidin-3-yl)butanoic acid] | 0.22 | 1.10 | 5.52
CCCCC(C(=O)O)N1C(=O)/C(=C/C=C/c2ccc([N+](=O)[O-])o2)SC1=S (stereo not drawn) [6b, 2-((Z)-5-((E)-3-(5-nitrofuran-2-yl)allylidene)-4-oxo-2-thioxothiazolidin-3-yl)hexanoic acid] | 0.29 | 1.27 | 4.28
O=C(O)C(c1ccccc1)N1C(=O)/C(=C/C=C/c2ccc([N+](=O)[O-])o2)SC1=S (stereo not drawn) [9b, 2-((Z)-5-((E)-3-(5-Nitrofuran-2-yl)allylidene)-4-oxo-2-thioxothiazolidin-3-yl)-2-phenylacetic acid] | 0.63 | 1.34 | 0.95
O=C(O)CCN1C(=O)/C(=C/C=C/c2ccc([N+](=O)[O-])o2)SC1=S [12b, 3-((Z)-5-((E)-3-(5-Nitrofuran-2-yl)allylidene)-4-oxo-2-thioxothiazolidin-3-yl)propanoic acid] | 0.20 | 1.10 | 5.52
O=C(O)CCCN1C(=O)/C(=C/C=C/c2ccc([N+](=O)[O-])o2)SC1=S [13b, 4-((Z)-5-((E)-3-(5-Nitrofuran-2-yl)allylidene)-4-oxo-2-thioxothiazolidin-3-yl)butanoic acid] | 0.22 | 3.10 | 1.58
O=C(O)CCCCCN1C(=O)/C(=C/C=C/c2ccc([N+](=O)[O-])o2)SC1=S [14b, 6-((Z)-5-((E)-3-(5-nitrofuran-2-yl)allylidene)-4-oxo-2-thioxothiazolidin-3-yl)hexanoic acid] | 0.28 | 1.26 | 1.55
